# Assay results taken from PubChem BioAssay AID445 (National Center for Advancing Translational Sciences (NCATS), 2006).
# Some of the results follow. Further columns of the screen follow, without active or inactive calls. Compounds called inactive in the main read-out are mostly missing here. The note in brackets gives the kind of curve behind each potency; many fits are weak.
# Experiment: IkB Signaling
# Details: ABC-DLBCL IkBa-CBG/CBR dual luciferase ratio (green luciferase fused to IkBa over red control in OCI-Ly3 lymphoma cells), 4 h
# Method in brief: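 Curves were fitted separately to fusion (green), unfused (red) and ratio luminescence, then classed by r2, magnitude and activity. Cells: OCI-Ly3, 4 h compound plus doxycycline at 37C; 10 uM MG-132 defined full response.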
# [1] = measured here: control luc red channel unless noted
structure (smiles),measurement,setting,value
COc1ccccc1-n1nnnc1S(=O)(=O)Cc1ccc(Cl)cc1,AC50,measured here: IkB-luc green channel,"39.8 µM [falling, single point]"
same,AC50,measured here: control luc red channel,"3.16 µM [falling, partial curve]"
COc1ccccc1OCCn1c(NC(=O)c2ccccc2Cl)nc2ccccc21,AC50,[1],"7.94 µM [falling, partial curve]"
Cc1ccc(NC(=O)C(=O)NCC(c2cccnc2)N2CCN(Cc3ccccc3)CC2)cc1C (stereo unspecified),AC50,[1],"3.16 µM [falling, partial curve, poor fit]"
COCCNC(=O)CCC(=O)NNc1nc2ccccc2c2nc(C)nn12,AC50,[1],"0.631 µM [rising, full curve]"
CS(=O)(=O)N1CCc2cc(C(=O)N3CCN(c4cccc(Cl)c4)CC3)ccc21,AC50,[1],"25.1 µM [falling, single point]"
Cc1ccc(C)c(N2CCN(C(=O)c3cn(CC(C)C)c(=O)c4c3c3ccccc3n4C)CC2)c1,AC50,[1],"10 µM [falling, partial curve]"
Cc1ccc(NC(=O)C2(c3cccs3)CCOCC2)cc1Cl,AC50,[1],"0.158 µM [falling, full curve]"
CC(=O)N1CCCc2cc(S(=O)(=O)N3CCCC(C(=O)N4CCN(c5cccc(Cl)c5)CC4)C3)ccc21 (stereo unspecified),AC50,[1],"10 µM [falling, partial curve, poor fit]"
CCOc1cc2sc(N3CCC(C(=O)Nc4ccc(CC)cc4)CC3)nc2cc1Br,AC50,[1],"0.316 µM [falling, full curve]"
CCOc1ccc(CNC(=O)c2cccc(NC(=O)N3CCSc4ncccc43)c2)cc1OC,AC50,[1],"12.6 µM [falling, partial curve]"
CCc1ccc(C(=O)c2cn(CC(=O)Nc3ccc(Cl)cc3)c3cc4c(cc3c2=O)OCO4)cc1,AC50,[1],"3.98 µM [falling, partial curve]"
Cc1ccc(C)c(CSc2nnc3[nH]c(=O)cc(C)n23)c1,AC50,[1],"0.2 µM [falling, full curve, poor fit]"
O=C(CSc1nnc(-c2cccs2)o1)OC1CCCCC1,AC50,[1],"5.01 µM [falling, partial curve] [measured here: IkB-luc green channel]"
CC(C)c1nn2c(=O)cc(COC(=O)c3cccc(NC(=O)COc4ccc(F)cc4)c3)nc2s1,AC50,[1],"0.316 µM [falling, full curve]"
COc1ccc(C)cc1NC(=O)c1noc2c1CSc1ccccc1-2,AC50,[1],"10 µM [falling, partial curve]"
C=C(C)CN(CC)c1nc(N)c(C#N)c(CC#N)c1C#N,AC50,[1],"25.1 µM [falling, partial curve]"
COc1ccc(C2C(C(=O)Nc3ccccc3)=C(C)Nc3c(C(=O)Nc4ccccc4)cnn32)cc1 (stereo unspecified),AC50,[1],"10 µM [falling, partial curve]"
CCCCNC(=O)c1nn(C)c2c1CSc1ccccc1-2,AC50,[1],"12.6 µM [falling, partial curve]"
Cc1ccc(C(=O)c2cn(Cc3cccc(Cl)c3)c3nc(C)ccc3c2=O)cc1,AC50,[1],"20 µM [falling, partial curve, poor fit]"
Cn1cccc1Cc1nnc(SCC(=O)Nc2ccc3c(c2)OCCO3)n1-c1ccc(F)cc1,AC50,[1],"12.6 µM [falling, partial curve]"
Cc1cccc(N2C(=O)CC(c3ccc(F)cc3)C3=C2COC3=O)c1 (stereo unspecified),AC50,[1],"39.8 µM [falling, single point]"
CCOc1ccccc1N1CCN(Cc2cccc(OC)c2O)CC1,AC50,[1],"12.6 µM [falling, partial curve]"
CCCCCCn1nnc2sc(-c3ccccc3)cc2c1=O,AC50,[1],"39.8 µM [falling, single point]"
CCC1CN(C(=O)Nc2ccccc2F)c2cc(C)ccc2O1 (stereo unspecified),AC50,[1],"31.6 µM [falling, partial curve]"
COc1cc(C)ccc1OCCSc1nc2ccc(NC(=O)c3ccco3)cc2s1,AC50,[1],"7.94 µM [falling, partial curve]"
COc1ccc(OC)c(NC(=O)CSc2nc(=O)n(CCN(C)C)c3c2CCC3)c1,AC50,[1],"20 µM [falling, partial curve]"
Cc1cc(-c2cc(N)n(-c3ccccc3)n2)c(C)n1C1CCCC1,AC50,[1],"0.0398 µM [falling, full curve]"
COc1cc(NC(=O)CC2C(=O)N(c3ccccc3)C(=O)N2Cc2ccc(F)cc2)cc(OC)c1 (stereo unspecified),AC50,[1],"31.6 µM [falling, single point]"
CCCOc1ccc(C2C(=O)N(C3CCCCCC3)CC(=O)N2Cc2ccccc2OC)cc1OC (stereo unspecified),AC50,[1],"31.6 µM [falling, partial curve]"
CCCCCn1c(CCNC(=O)c2cccs2)nc2ccccc21,AC50,[1],"25.1 µM [falling, partial curve]"
CC1CCc2c(sc(NC(=O)Cc3ccccc3)c2C(=O)Nc2ccc(Cl)cc2)C1 (stereo unspecified),AC50,[1],"0.501 µM [falling, full curve, poor fit]"
Cc1ccc(-c2nn3c(-c4ccccc4C)nnc3c3ccccc23)cc1,AC50,[1],"0.794 µM [rising, full curve]"
CC(C)c1nnc(NC(=O)c2c(O)c3cccc4c3n(c2=O)CCC4)s1,AC50,[1],"0.1 µM [falling, full curve]"
CCOC(=O)c1ccc(CC(=O)c2oc3cc(O)ccc3c2C)o1,AC50,[1],"31.6 µM [falling, single point]"
O=C(CCNS(=O)(=O)c1ccc2c(c1)CCCC(=O)N2)Nc1cccc(Cl)c1,AC50,[1],"0.0158 µM [falling, full curve, poor fit]"
Cc1cc(NC(=O)CCc2nc3cccnc3n2-c2ccccc2)ccc1Br,AC50,[1],"15.8 µM [falling, partial curve]"
O=C(Cn1nnc(-c2ccncc2)n1)N(C1CCCCC1)C1CCCCC1,AC50,[1],"15.8 µM [falling, partial curve]"
Cc1ccccc1NC(=O)Cn1cc(C(=O)c2ccco2)c2ccccc21,AC50,[1],"31.6 µM [falling, partial curve]"
Cc1ccccc1Cn1ccc(NC(=O)CCSc2nc(-c3ccco3)cc(C(F)(F)F)n2)n1,AC50,[1],"10 µM [falling, partial curve]"
CCc1ccc2nc(N(Cc3cccnc3)C(=O)c3ccc(C#N)cc3)sc2c1,AC50,[1],"0.0251 µM [rising, full curve, poor fit]"

# Part of the list above, tab-delimited.
structure (smiles)	measurement	setting	value
CS(=O)(=O)N1CCc2cc(C(=O)N3CCN(c4cccc(Cl)c4)CC3)ccc21	AC50	[1]	25.1 µM [falling, single point]
Cc1cc(NC(=O)CCc2nc3cccnc3n2-c2ccccc2)ccc1Br	AC50	[1]	15.8 µM [falling, partial curve]
